Data from paper PMC6433232, “Targeting mitochondria in cancer therapy could provide a basis for the selective anti-cancer activity” (PLoS ONE, 2019).

Tested on: primary acute myeloid leukemia (AML) cells obtained from patients
Assay: Kinase inhibitor library screening with and without NSC130362, primary AML cells
Type: cell-based, Human
Conditions: ratio of EC50 for inhibitor to EC50 for inhibitor/NSC130362 combination, NSC130362 10 μM

| SMILES | EC50 decrease, fold (Screen N 1) [fold] | EC50 decrease, fold (Screen N 2) [fold] | EC50 decrease, fold (Screen N 3) (Screen N 3) [fold] |
| --- | --- | --- | --- |
| CO[C@@H]1[C@H](N(C)C(=O)c2ccccc2)C[C@H]2O[C@]1(C)n1c3ccccc3c3c4c(c5c6ccccc6n2c5c31)C(=O)NC4 [Midostaurin (PKC412)] | 1.1 | 1.0 | 25.1 |
| CNC(=O)c1ccccc1Sc1ccc2c(/C=C/c3ccccn3)n[nH]c2c1 [Axitinib (AG-013736)] | 0.476 | 1.0 | – |
